No constants are given. Whether binding was seen depends on the method and setting. Some entries that bind do so weakly or less than the wild type. Sequences can lack the tags named with a protein.
Target: K560-GFP with C-terminal Strep-tag, purified (human) (UniProt P33176)
Test: single-molecule TIRF reconstitution (cotransport on microtubules); dual-color imaging of K560-GFP and labeled MAP on dynamic MTs grown from GMPCPP seeds; MRB80 with 50 mM KCl, 2 mM ATP, 30°C; both purified

Protein sequences, listed by entry. Tags and fused reporters are not part of them. Residues count along the entry.
UniProt P33176, residues 1-560: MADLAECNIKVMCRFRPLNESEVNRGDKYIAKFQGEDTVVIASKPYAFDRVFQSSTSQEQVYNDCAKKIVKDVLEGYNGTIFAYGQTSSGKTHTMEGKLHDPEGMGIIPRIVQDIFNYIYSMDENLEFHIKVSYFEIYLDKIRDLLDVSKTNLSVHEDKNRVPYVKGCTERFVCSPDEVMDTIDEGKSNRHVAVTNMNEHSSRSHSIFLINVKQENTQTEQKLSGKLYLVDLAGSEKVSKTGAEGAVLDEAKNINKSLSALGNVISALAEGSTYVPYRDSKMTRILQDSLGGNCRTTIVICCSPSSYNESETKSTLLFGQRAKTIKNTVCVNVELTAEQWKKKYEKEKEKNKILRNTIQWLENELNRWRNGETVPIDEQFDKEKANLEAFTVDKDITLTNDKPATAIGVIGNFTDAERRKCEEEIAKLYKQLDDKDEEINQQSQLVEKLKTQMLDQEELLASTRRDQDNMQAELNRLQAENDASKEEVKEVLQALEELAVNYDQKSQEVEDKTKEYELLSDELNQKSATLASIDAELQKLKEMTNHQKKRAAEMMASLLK

binding: binds
B1: Alexa Fluor 647–labeled SNAP-tag-MAP7D3, full length (protein, UniProt Q8IWC1 1-876)
chain: MMADGAAAGAGGSPSLRELRARMVAAANEIAKERRKQDVVNRVATHSSNIRSTFKPVIDGSMLKNDIKQRLARERREEKRRQQDANKETQLLEKERKTKLQYEKQMEERQRKLKERKEKEEQRRIAAEEKRHQKDEAQKEKFTAILYRTLERRRLADDYQQKRWSWGGSAMANSESKTANKRSASTEKLEQGTSALIRQMPLSSAGLQNSVAKRKTDKERSSSLNRRDSNLHSSTDKEQAERKPRVTGVTNYVMQYVTVPLRKCTSDELRAVMFPMSTMKIPPQTKVEESPLEKVETPPKASVDAPPQVNVEVFCNTSMEASPKAGVGMAPEVSTDSFPVVSVDVSPVVSTYDSEMSMDASPELSIEALPKVDLETVPKVSIVASPEASLEAPPEVSLEALPEVSVEAAPEGSLEAPPKGSAEVAPKESVKGSPKESMEASPEAMVKASPKTSLEASMEASPKAKARDAPKKSEMDKQALIPIAKKRLSSYTECYKWSSSPENACGLPSPISTNRQIQKNCPPSPLPLISKQSPQTSFPYKIMPIQHTLSVQSASSTVKKKKETVSKTTNRCEALSQRHMIYEESGNKSTAGIMNAEAATKILTELRRLAREQREKEEEERQREEMQQRVIKKSKDMAKEAVGGQAEDHLKLKDGQQQNETKKKKGWLDQEDQEAPLQKGDAKIKAQEEADKRKKEHERIMLQNLQERLERKKRIEEIMKRTRKTDVNASKVTETSSHDIYEEAEADNEESDKDSLNEMFPSAILNGTGSPTKFKMPFNNAKKMTHKLVFLEDGTSQVRKEPKTYFNGDLKNFRQKSMKDTSIQEVVSRPSSKRMTSHTTKTRKADETNTTSRSSAQTKSEGFHDILPKSSDTFRQ
modifications: Alexa Fluor 647 on the SNAP-tag
